{"source": "paper PMC11145868", "about": "“Protein target similarity is positive predictor of in vitro antipathogenic activity: a drug repurposing strategy for Plasmodium falciparum” (Journal of Cheminformatics, 2024)", "key": {"[1]": {"system": "P. berghei-luciferase sporozoites", "assay": "microbe, parasite or virus in culture", "format": "cell-based", "details": "Plasmodium berghei, HepG2, 48 h, read-out: Liver stage 48h EC50"}, "P. falciparum Dd2-HLH": {"system": "P. falciparum Dd2-HLH", "assay": "microbe, parasite or virus in culture", "format": "cell-based", "details": "Plasmodium falciparum, DD2, 48 h, read-out: Blood stage 48h EC50"}}, "data": [{"smiles": "COc1ccc(CCN2CCC(Nc3nc4ccccc4n3Cc3ccc(F)cc3)CC2)cc1", "note": "[Astemizole]", "values": [{"measurement": "EC50", "setting": "[1]", "result": 50, "unit": "nM"}, {"measurement": "EC50", "setting": "P. falciparum Dd2-HLH", "result": 342, "unit": "nM"}]}]}
